From paper PMC8082149
No constants are given. Whether binding was seen depends on the method and setting. In cells and extracts the contact can be indirect. These calls come from enrichment with a bait or labelling near it, and not all partners need be listed.

By UniProt entry, the sequences of proteins in these tests, tags left out.
UniProt Q9Y572: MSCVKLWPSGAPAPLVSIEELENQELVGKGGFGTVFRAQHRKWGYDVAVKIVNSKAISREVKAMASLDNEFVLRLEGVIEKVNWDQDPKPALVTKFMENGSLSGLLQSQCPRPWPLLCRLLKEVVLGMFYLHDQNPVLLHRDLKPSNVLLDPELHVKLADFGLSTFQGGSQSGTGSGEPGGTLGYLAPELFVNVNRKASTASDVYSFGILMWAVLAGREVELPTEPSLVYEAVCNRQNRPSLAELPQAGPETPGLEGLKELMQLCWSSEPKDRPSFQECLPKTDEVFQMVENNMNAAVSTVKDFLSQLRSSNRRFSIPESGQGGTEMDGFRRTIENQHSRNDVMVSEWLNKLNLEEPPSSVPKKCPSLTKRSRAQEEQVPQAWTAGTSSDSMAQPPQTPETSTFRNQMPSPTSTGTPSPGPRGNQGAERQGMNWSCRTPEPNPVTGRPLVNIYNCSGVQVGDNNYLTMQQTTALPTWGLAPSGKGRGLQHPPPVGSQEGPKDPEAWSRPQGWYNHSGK
UniProt Q13158: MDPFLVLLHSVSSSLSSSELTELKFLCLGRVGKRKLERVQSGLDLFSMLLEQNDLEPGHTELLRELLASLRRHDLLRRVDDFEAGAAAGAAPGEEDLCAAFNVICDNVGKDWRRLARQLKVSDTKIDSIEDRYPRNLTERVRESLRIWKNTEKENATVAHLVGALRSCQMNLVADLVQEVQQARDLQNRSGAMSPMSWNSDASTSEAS
UniProt P08238: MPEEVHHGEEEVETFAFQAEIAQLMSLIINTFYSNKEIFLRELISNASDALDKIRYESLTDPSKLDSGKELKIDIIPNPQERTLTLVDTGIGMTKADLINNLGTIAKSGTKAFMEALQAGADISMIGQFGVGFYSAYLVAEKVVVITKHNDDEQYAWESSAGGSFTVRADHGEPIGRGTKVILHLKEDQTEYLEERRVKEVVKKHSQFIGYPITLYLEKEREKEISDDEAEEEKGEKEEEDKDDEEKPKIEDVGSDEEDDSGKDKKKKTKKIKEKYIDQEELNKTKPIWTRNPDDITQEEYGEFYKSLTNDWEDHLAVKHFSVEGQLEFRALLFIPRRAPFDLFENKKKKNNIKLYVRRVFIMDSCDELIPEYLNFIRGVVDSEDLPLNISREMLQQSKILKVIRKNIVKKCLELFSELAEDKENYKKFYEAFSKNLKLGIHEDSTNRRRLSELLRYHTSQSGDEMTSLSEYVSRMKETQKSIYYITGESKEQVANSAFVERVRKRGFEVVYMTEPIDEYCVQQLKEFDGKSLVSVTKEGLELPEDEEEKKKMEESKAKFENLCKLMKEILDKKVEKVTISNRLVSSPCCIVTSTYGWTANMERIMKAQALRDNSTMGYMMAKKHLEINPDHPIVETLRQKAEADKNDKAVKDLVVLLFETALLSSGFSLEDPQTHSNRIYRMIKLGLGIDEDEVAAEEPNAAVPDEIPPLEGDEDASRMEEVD
UniProt Q14790: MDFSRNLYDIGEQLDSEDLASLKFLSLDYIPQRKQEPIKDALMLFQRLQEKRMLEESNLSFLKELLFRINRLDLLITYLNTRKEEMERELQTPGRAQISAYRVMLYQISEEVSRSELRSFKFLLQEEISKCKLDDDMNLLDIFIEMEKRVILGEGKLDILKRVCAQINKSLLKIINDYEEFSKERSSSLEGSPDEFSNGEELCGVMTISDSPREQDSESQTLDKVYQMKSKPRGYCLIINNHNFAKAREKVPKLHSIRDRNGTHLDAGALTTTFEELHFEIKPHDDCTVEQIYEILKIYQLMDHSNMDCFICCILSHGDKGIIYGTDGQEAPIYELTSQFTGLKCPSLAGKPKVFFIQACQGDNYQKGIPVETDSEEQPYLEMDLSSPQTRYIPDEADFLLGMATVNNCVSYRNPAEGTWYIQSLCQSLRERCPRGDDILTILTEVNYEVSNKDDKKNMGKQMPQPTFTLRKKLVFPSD
UniProt Q13546: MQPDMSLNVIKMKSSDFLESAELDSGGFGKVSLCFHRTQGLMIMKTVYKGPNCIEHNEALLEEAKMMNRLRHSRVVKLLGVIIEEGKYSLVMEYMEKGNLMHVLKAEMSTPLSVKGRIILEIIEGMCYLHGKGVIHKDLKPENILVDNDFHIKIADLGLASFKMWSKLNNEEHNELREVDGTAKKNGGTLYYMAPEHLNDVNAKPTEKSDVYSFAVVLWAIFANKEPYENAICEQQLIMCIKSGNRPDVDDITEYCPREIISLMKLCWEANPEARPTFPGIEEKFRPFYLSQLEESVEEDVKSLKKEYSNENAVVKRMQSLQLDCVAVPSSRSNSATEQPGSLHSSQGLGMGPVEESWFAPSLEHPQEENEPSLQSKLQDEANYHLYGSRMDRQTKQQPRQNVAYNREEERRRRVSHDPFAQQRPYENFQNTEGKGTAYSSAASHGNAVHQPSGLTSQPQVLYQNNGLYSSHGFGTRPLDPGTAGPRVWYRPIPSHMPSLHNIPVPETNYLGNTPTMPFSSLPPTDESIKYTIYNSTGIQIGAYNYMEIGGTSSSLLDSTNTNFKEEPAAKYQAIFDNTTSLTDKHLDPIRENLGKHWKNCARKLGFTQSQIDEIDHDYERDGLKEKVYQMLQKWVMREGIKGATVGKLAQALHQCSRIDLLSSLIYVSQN
UniProt P19474: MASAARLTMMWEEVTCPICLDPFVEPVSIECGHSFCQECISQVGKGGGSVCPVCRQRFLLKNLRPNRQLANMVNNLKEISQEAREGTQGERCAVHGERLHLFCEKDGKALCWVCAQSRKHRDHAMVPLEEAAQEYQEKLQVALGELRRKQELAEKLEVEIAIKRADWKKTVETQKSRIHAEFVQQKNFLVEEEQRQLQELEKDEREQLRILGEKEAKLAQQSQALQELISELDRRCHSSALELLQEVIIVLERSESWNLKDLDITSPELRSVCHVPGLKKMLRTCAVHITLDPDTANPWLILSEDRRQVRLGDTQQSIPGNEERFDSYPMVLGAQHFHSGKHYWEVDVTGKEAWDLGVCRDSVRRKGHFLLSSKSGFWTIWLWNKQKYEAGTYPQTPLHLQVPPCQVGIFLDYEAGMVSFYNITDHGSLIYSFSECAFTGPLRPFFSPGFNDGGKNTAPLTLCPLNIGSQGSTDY

molecular target: receptor-interacting serine/threonine-protein kinase 3 (human (endogenous in HT29)) (UniProt Q9Y572); experiment: affinity purification with mass spectrometry; pools of eight anti-RIPK3 immunoprecipitates from HT29 cells at 0 and 3 h of TzB treatment, trypsin digestion, LC-MS/MS (LTQ-OrbiTrap XL), spectral count label-free quantification, duplicate; IgG control

binding, binds:
Fas-associated with death domain protein (from UniProt Q13158 1-208), Heat shock protein 90-beta (from UniProt P08238 1-724), caspase-8 (from UniProt Q14790 1-479) (enzyme), receptor-interacting serine/threonine-protein kinase 1 (from UniProt Q13546 1-671), tripartite motif containing 21 (from UniProt P19474 1-475)
